From article PMC11700651
These are yes or no findings as the source states them, for the method shown. Binding seen in cells or lysates may run through a third protein. Binding can be weak; no strength is given.

Protein sequences, listed by entry. Tags and fused reporters are not part of them.
UniProt O00571: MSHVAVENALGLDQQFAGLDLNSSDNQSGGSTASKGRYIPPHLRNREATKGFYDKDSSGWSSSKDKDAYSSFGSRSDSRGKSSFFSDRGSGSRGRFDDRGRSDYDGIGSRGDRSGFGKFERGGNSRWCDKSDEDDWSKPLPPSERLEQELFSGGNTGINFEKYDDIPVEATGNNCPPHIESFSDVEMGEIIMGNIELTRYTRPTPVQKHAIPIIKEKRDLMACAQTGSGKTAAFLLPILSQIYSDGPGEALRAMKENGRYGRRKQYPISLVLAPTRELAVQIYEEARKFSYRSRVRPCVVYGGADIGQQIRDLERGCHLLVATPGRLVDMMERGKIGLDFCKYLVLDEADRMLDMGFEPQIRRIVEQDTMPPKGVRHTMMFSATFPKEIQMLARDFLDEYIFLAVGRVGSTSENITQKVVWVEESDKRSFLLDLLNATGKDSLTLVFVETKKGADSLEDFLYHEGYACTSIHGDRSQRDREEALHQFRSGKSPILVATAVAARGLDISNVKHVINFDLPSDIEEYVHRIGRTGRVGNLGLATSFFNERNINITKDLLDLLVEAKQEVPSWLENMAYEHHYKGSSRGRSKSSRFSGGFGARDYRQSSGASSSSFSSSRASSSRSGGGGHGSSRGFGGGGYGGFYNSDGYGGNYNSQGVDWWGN

Target: Flag-DDX3X (DEAD-box helicase 3X) (human) (UniProt O00571)
Assay: co-IP; HEK293T co-transfected with the plasmids; lysed in IP buffer (50 mM Tris pH 7.5, 1% Triton X-100, 150 mM NaCl); IP with IgG, anti-Flag or anti-METTL3 at 4°C, protein-G or -A agarose; washed with IP buffer with 0.3 M NaCl; western blot

METTL3mut (catalytic center mutant, DPPW-APPA) (from UniProt Q86U44-1) (enzyme)
binding: binds
